For one sequence, Kd results are on record in PMC3025350, “Regulation and Rate Enhancement during Transcription-Coupled DNA Repair”.

The Kd is the constant that tells how readily two partners part at equilibrium.

Construct, isoform or probe ends are uncertain for at least one entry. Tags and fusion partners may be left off the protein sequences shown.

The target in the series is T1, UvrA WT (UniProt P0A698).
T1 sequence (looked up, limits assumed): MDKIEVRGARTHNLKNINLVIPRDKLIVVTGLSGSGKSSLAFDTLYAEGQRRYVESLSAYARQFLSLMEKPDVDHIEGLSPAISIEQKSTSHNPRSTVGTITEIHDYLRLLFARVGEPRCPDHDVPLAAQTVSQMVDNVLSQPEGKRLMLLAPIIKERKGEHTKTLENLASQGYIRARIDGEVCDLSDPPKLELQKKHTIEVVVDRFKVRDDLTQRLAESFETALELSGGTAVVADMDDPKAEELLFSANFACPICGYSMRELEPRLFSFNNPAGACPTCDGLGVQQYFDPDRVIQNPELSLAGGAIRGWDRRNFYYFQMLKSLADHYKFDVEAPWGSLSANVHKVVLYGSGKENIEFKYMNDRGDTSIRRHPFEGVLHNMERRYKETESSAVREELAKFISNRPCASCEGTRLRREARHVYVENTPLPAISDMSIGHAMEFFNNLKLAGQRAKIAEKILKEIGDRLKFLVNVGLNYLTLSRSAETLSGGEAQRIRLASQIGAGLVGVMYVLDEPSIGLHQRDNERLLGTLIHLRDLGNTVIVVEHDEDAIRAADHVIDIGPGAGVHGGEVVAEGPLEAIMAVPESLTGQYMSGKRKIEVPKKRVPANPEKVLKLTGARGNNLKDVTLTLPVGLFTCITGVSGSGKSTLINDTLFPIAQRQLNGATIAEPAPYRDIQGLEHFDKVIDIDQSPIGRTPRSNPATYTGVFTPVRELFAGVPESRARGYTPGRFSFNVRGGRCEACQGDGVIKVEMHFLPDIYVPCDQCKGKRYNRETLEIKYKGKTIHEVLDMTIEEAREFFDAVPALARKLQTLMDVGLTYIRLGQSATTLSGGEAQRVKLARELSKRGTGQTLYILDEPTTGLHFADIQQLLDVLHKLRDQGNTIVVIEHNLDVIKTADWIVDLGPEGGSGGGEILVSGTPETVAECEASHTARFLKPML
As to the kind of experiment: EMSA. As to conditions: 2 mM ATP, 1 nM 32P-labeled 50 bp duplex, 20 min at 37°C, recombinant protein, protein details: N-terminal His, label: 32P, letters put together from the description.

In the case of “CTAGGATCGGATAGCGCATGACAGTGACTGGATCGACAGCGTCGTATGAG (double strand) [50 bp undamaged duplex]”, the Kd was determined as 0.043 µM.
